This is one part of the list.
Legend:
Experiment in all cases: glycan array binding signal (z-score within array); higher = stronger binding
Settings in all cases: glycan notation: IUPAC condensed, linker removed
[1] = target: Neu5Ac(a2-3)Gal(b1-4)GlcNAc(b1-2)[Neu5Ac(a2-3)Gal(b1-4)GlcNAc(b1-4)]Man(a1-3)[GlcNAc(b1-4)][Neu5Ac(a2-3)Gal(b1-4)GlcNAc(b1-2)[Neu5Ac(a2-3)Gal(b1-4)GlcNAc(b1-6)]Man(a1-6)]Man(b1-4)GlcNAc(b1-4)GlcNAc
How it was run: (§1)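 The Consortium for Functional Glycomics database supplied 3228 glycan arrays, of which those lacking an available protein sequence were dropped. The binding signal, a within-array Z-score, was averaged across arrays of the same protein sequence and across linkers. Negative scores can be read as non-binding.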

[2] = target: Neu5Ac(a2-3)Gal(b1-4)GlcNAc(b1-2)[Neu5Ac(a2-3)Gal(b1-4)GlcNAc(b1-4)]Man(a1-3)[GlcNAc(b1-4)][Neu5Ac(a2-3)Gal(b1-4)GlcNAc(b1-4)Man(a1-6)]Man(b1-4)GlcNAc(b1-4)GlcNAc
How it was run: as §1

[3] = target: Neu5Ac(a2-3)Gal(b1-4)GlcNAc(b1-2)[Neu5Ac(a2-3)Gal(b1-4)GlcNAc(b1-6)]Man(a1-6)[Neu5Ac(a2-3)Gal(b1-4)GlcNAc(b1-2)Man(a1-3)][GlcNAc(b1-4)]Man(b1-4)GlcNAc(b1-4)GlcNAc
How it was run: as §1

[4] = target: Neu5Ac(a2-3)Gal(b1-4)GlcNAc(b1-3)Gal
How it was run: as §1

[5] = target: Neu5Ac(a2-3)Gal(b1-4)GlcNAc(b1-3)Gal(b1-3)GlcNAc
How it was run: as §1

[6] = target: Neu5Ac(a2-3)Gal(b1-4)GlcNAc(b1-3)Gal(b1-4)GlcNAc
How it was run: as §1

[7] = target: Neu5Ac(a2-3)Gal(b1-4)GlcNAc(b1-3)Gal(b1-4)GlcNAc(b1-2)Man(a1-3)[Neu5Ac(a2-3)Gal(b1-4)GlcNAc(b1-3)Gal(b1-4)GlcNAc(b1-2)Man(a1-6)]Man(b1-4)GlcNAc(b1-4)GlcNAc
How it was run: as §1

[8] = target: Neu5Ac(a2-3)Gal(b1-4)GlcNAc(b1-3)Gal(b1-4)GlcNAc(b1-3)Gal(b1-4)GlcNAc
How it was run: as §1

[9] = target: Neu5Ac(a2-3)Gal(b1-4)GlcNAc(b1-3)Gal(b1-4)GlcNAc(b1-3)Gal(b1-4)GlcNAc(b1-2)Man(a1-3)[Neu5Ac(a2-3)Gal(b1-4)GlcNAc(b1-3)Gal(b1-4)GlcNAc(b1-3)Gal(b1-4)GlcNAc(b1-2)Man(a1-6)]GalNAc
How it was run: as §1

[10] = target: Neu5Ac(a2-3)Gal(b1-4)GlcNAc(b1-3)Gal(b1-4)GlcNAc(b1-3)GalNAc
How it was run: as §1

[11] = target: Neu5Ac(a2-3)Gal(b1-4)GlcNAc(b1-3)Gal(b1-4)GlcNAc(b1-3)[Neu5Ac(a2-3)Gal(b1-4)GlcNAc(b1-3)Gal(b1-4)GlcNAc(b1-6)]GalNAc
How it was run: as §1

[12] = target: Neu5Ac(a2-3)Gal(b1-4)GlcNAc(b1-3)Gal(b1-4)GlcNAc(b1-6)[Gal(b1-3)]GalNAc
How it was run: as §1

[13] = target: Neu5Ac(a2-3)Gal(b1-4)GlcNAc(b1-3)Gal(b1-4)[Fuc(a1-3)]GlcNAc
How it was run: as §1

[14] = target: Neu5Ac(a2-3)Gal(b1-4)GlcNAc(b1-3)GalNAc
How it was run: as §1

[15] = target: Neu5Ac(a2-3)Gal(b1-4)GlcNAc(b1-3)[Neu5Ac(a2-3)Gal(b1-4)GlcNAc(b1-6)]GalNAc
How it was run: as §1

[16] = target: Neu5Ac(a2-3)Gal(b1-4)GlcNAc(b1-6)GalNAc
How it was run: as §1

[17] = target: Neu5Ac(a2-3)Gal(b1-4)GlcNAc(b1-6)[Gal(b1-3)]GalNAc
How it was run: as §1

[18] = target: Neu5Ac(a2-3)Gal(b1-4)GlcNAc(b1-6)[Neu5Ac(a2-3)Gal(b1-3)]GalNAc
How it was run: as §1

[19] = target: Neu5Ac(a2-3)Gal(b1-4)GlcNAc6S
How it was run: as §1

[20] = target: Neu5Ac(a2-3)Gal(b1-4)[Fuc(a1-3)]GlcNAc
How it was run: as §1

[21] = target: Neu5Ac(a2-3)Gal(b1-4)[Fuc(a1-3)]GlcNAc(b1-2)Man
How it was run: as §1

[22] = target: Neu5Ac(a2-3)Gal(b1-4)[Fuc(a1-3)]GlcNAc(b1-3)Gal
How it was run: as §1

[23] = target: Neu5Ac(a2-3)Gal(b1-4)[Fuc(a1-3)]GlcNAc(b1-3)Gal(b1-4)GlcNAc
How it was run: as §1

[24] = target: Neu5Ac(a2-3)Gal(b1-4)[Fuc(a1-3)]GlcNAc(b1-3)Gal(b1-4)[Fuc(a1-3)]GlcNAc(b1-3)Gal(b1-4)[Fuc(a1-3)]GlcNAc
How it was run: as §1

[25] = target: Neu5Ac(a2-3)Gal(b1-4)[Fuc(a1-3)]GlcNAc(b1-3)GalNAc
How it was run: as §1

[26] = target: Neu5Ac(a2-3)Gal(b1-4)[Fuc(a1-3)]GlcNAc(b1-6)[Gal(b1-3)]GalNAc
How it was run: as §1

[27] = target: Neu5Ac(a2-3)Gal(b1-4)[Fuc(a1-3)]GlcNAc(b1-6)[Neu5Ac(a2-3)Gal(b1-3)]GalNAc
How it was run: as §1

[28] = target: Neu5Ac(a2-3)Gal(b1-4)[Fuc(a1-3)]GlcNAc6S
How it was run: as §1

[29] = target: Neu5Ac(a2-3)Gal6S(b1-4)GlcNAc
How it was run: as §1

[30] = target: Neu5Ac(a2-3)Gal6S(b1-4)[Fuc(a1-3)]GlcNAc
How it was run: as §1

[31] = target: Neu5Ac(a2-3)GalNAc
How it was run: as §1

[32] = target: Neu5Ac(a2-3)GalNAc(b1-4)GlcNAc
How it was run: as §1

[33] = target: Neu5Ac(a2-3)[GalNAc(b1-4)]Gal(b1-4)Glc
How it was run: as §1

[34] = target: Neu5Ac(a2-3)[GalNAc(b1-4)]Gal(b1-4)GlcNAc
How it was run: as §1

[35] = target: Neu5Ac(a2-3)[GalNAc(b1-4)]Gal(b1-4)GlcNAc(b1-3)GalNAc
How it was run: as §1

[36] = target: Neu5Ac(a2-3)[Neu5Ac(a2-6)]GalNAc
How it was run: as §1

[37] = target: Neu5Ac(a2-6)Gal
How it was run: as §1

[38] = target: Neu5Ac(a2-6)Gal(b1-3)GlcNAc(b1-3)[Gal(b1-4)GlcNAc(b1-6)]Gal(b1-4)Glc
How it was run: as §1

[39] = target: Neu5Ac(a2-6)Gal(b1-4)Glc
How it was run: as §1

[40] = target: Neu5Ac(a2-6)Gal(b1-4)GlcNAc
How it was run: as §1

[41] = target: Neu5Ac(a2-6)Gal(b1-4)GlcNAc(b1-2)Man
How it was run: as §1

[42] = target: Neu5Ac(a2-6)Gal(b1-4)GlcNAc(b1-2)Man(a1-3)Man(b1-4)GlcNAc(b1-4)GlcNAc
How it was run: as §1

[43] = target: Neu5Ac(a2-6)Gal(b1-4)GlcNAc(b1-2)Man(a1-3)[Gal(b1-4)GlcNAc(b1-2)Man(a1-6)]Man(b1-4)GlcNAc(b1-4)GlcNAc
How it was run: as §1

[44] = target: Neu5Ac(a2-6)Gal(b1-4)GlcNAc(b1-2)Man(a1-3)[GlcNAc(b1-2)Man(a1-6)]Man(b1-4)GlcNAc(b1-4)GlcNAc
How it was run: as §1

[45] = target: Neu5Ac(a2-6)Gal(b1-4)GlcNAc(b1-2)Man(a1-3)[GlcNAc(b1-4)][Neu5Ac(a2-6)Gal(b1-4)GlcNAc(b1-2)Man(a1-6)]Man(b1-4)GlcNAc(b1-4)GlcNAc
How it was run: as §1

B1: EUL D1A second (Oryza sativa) (protein)
chain: GAATACTIGGVPVHTVRVFSAAGEDYCLTVRNGTACLAPKNPRDDYQHWIKDMRHSNKIRDEEGYPAFALVNKVTGEAIKHSTGQGHPVKLVPYNPEYQDESVLWTESKDVGKGFRCIRMVNNIYLNFDAFHGDKDHGGIHDGTEIVLWKWCEGDNQRWKILPWILEQKLISEEDLNSAVDHHHHHH
[1]
  glycan array binding signal (z-score): -0.083
[2]
  glycan array binding signal (z-score): -0.325
[3]
  glycan array binding signal (z-score): -0.623
[4]
  glycan array binding signal (z-score): -0.076
[5]
  glycan array binding signal (z-score): -0.69
[6]
  glycan array binding signal (z-score): -0.145
[7]
  glycan array binding signal (z-score): 0.94
[8]
  glycan array binding signal (z-score): -0.348
[9]
  glycan array binding signal (z-score): 3.53
[10]
  glycan array binding signal (z-score): -0.203
[11]
  glycan array binding signal (z-score): -0.67
[12]
  glycan array binding signal (z-score): 0.745
[13]
  glycan array binding signal (z-score): -0.192
[14]
  glycan array binding signal (z-score): -1.44
[15]
  glycan array binding signal (z-score): 0.851
[16]
  glycan array binding signal (z-score): -0.07
[17]
  glycan array binding signal (z-score): -0.393
[18]
  glycan array binding signal (z-score): -0.368
[19]
  glycan array binding signal (z-score): 1.35
[20]
  glycan array binding signal (z-score): -1.4
[21]
  glycan array binding signal (z-score): -0.015
[22]
  glycan array binding signal (z-score): -0.509
[23]
  glycan array binding signal (z-score): 1.72
[24]
  glycan array binding signal (z-score): -0.112
[25]
  glycan array binding signal (z-score): 2.61
[26]
  glycan array binding signal (z-score): 1.2
[27]
  glycan array binding signal (z-score): 1
[28]
  glycan array binding signal (z-score): -1.07
[29]
  glycan array binding signal (z-score): -0.317
[30]
  glycan array binding signal (z-score): -2.23
[31]
  glycan array binding signal (z-score): 0.166
[32]
  glycan array binding signal (z-score): -0.477
[33]
  glycan array binding signal (z-score): -1.43
[34]
  glycan array binding signal (z-score): -0.224
[35]
  glycan array binding signal (z-score): 0.459
[36]
  glycan array binding signal (z-score): -0.898
[37]
  glycan array binding signal (z-score): 0.222
[38]
  glycan array binding signal (z-score): 0.694
[39]
  glycan array binding signal (z-score): 0.113
[40]
  glycan array binding signal (z-score): -0.437
[41]
  glycan array binding signal (z-score): -1.55
[42]
  glycan array binding signal (z-score): 0.287
[43]
  glycan array binding signal (z-score): -0.317
[44]
  glycan array binding signal (z-score): -0.124
[45]
  glycan array binding signal (z-score): 0.522

From the supplement of paper PMC8728848
